This list was built around the results that the source calls inconclusive (neither active nor inactive); the mix of calls is not that of the screen. Potencies beside an inconclusive call are fits to weak or partial responses and may not hold up. Activity calls are given as the source filed them. Calls come from the whole dose curve; as a rule, active = well fitted inhibition curve with a large enough effect; inconclusive = small, poorly fitted or top-dose-only effect; inactive = flat fitted curve, though single readings scatter.
What follows are compounds tested against Ferritin light chain (Equus caballus) (UniProt P02791) (assay: Confirmation Assay for Identification of Novel General Anesthetics). Settings: apoferritin 1-aminoanthracene fluorescence displacement.
Outline: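 Horse apoferritin (10 uM) pre-loaded with 1-AMA (50% saturated, PBS) exposed to compounds 10 min at room temperature; loss of 1-AMA fluorescence (380/535 nm) scaled between free and bound ligand, curves fitted with Hill equation.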
Note: nearly all actives have a fitted effect of over 40% in size.
Potency is the fitted concentration of half-maximal effect.

Sequences of proteins named here, by UniProt entry; tags and fusion partners are left off. Residues count along the entry.
UniProt P02791, 2-175 limits assumed: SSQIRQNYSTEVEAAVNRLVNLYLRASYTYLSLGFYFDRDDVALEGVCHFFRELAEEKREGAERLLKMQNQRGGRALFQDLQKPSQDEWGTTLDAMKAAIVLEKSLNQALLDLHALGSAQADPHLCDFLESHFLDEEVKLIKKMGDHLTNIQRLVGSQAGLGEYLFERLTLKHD

Potency, active:
Oc1ccc(C2C[C@H]3CC[C@@H]2C3)cc1O (some centres undefined) 7.08 µM
CC(C)c1ccc(NC(=O)C2CC3CCC2C3)cc1 (centres undefined) 31.6 µM
Cc1ccc(S(=O)(=O)NCCc2ccccc2)cc1 15.8 µM
CC(C)(C)CC(=O)Nc1ccc(Nc2ccccc2)cc1 17.8 µM
Cc1ccc(NCc2ccccc2O)c(C)c1 12.6 µM
Fc1ccccc1CSc1nc2ccccc2[nH]1 15.8 µM

Looked up by compound from the list above:
Potency, active:
Cc1ccc(S(=O)(=O)NCCc2ccccc2)cc1 15.8 µM
Fc1ccccc1CSc1nc2ccccc2[nH]1 15.8 µM

Following part:

Potency, inconclusive:
O=c1c2ccccc2nnn1Cc1cccc2ccccc12 17.8 µM [inhibitor, partial curve]
COc1cccc(NC(=O)NCCCSC2CCCCC2)c1 25.1 µM [inhibitor, partial curve]
N#Cc1sc(NCc2ccccc2)nc1Cl 35.5 µM [inhibitor, partial curve]
Cc1cc(OCCCn2ccnc2)cc(C)c1Cl 35.5 µM [inhibitor, partial curve]
Cc1c(Cl)cccc1NC(=O)c1cc(C2CC2)on1 35.5 µM [inhibitor, partial curve]
O=C(CSc1nnc(COc2ccccc2)o1)c1ccccc1 17.8 µM [inhibitor, partial curve]
O=C1/C(=C/c2cccc(F)c2)CSc2sccc21 39.8 µM [inhibitor, partial curve]
Cc1ccc(NC(=O)COc2ccccc2)cc1Cl 31.6 µM [inhibitor, partial curve]

From PubChem BioAssay AID489008 (National Center for Advancing Translational Sciences (NCATS), 2010)
